Values joined by “and” are separate entries in the source; they are usually repeats but may differ in a detail not shown here. Identical values can stand only once. The campaign covered roughly 230,000 compounds. About 310 (0.13%) were called active. Inconclusive means that the source gave no clear call. Such entries were picked first, then a sample of the others. Calls come from the whole dose curve; as a rule, active = well fitted activation curve with a large enough effect; inconclusive = small, poorly fitted or top-dose-only effect; inactive = no such curve, though single readings can be large or run the other way. A potency beside an inconclusive call is a rough fit, not a confirmed value. The source holds several records for some structures; these can differ, active in one and inactive in another.
Test: qHTS Multiplex Assay to Identify Dual Action Probes in a Cell Model of Huntington: Cytoprotection (ATP); note: nearly all actives have a fitted effect of over 45% in size;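 for cytoprotection (ATP increase): toxic huntingtin expression switched on by the ecdysone agonist tebufenozide; % of control where 0% means no effect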
Details: PC12 HTT-Q103 induced, ATP luminescence, 40 h; cytoprotection (ATP increase): at 56.4 µM (top of the series) unless noted
Method in brief: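 Readout: ATPlite luminescence (ATP level). Model: stable PC12, inducible Htt exon1 Q103-GFP. Inducer: tebufenozide, 100 nM final. Compounds: dose series. No G418 in medium.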
Potency is the fitted concentration of half-maximal effect.

| Compound | Potency | cytoprotection (ATP increase) |
| --- | --- | --- |
| Nc1nnc(-c2ccccc2Cl)s1 | inconclusive: 1.26 µM [activator, single point] |  |
| CC(Sc1ncnc2ccccc12)C(=O)Nc1ccc2c(c1)OCCO2 (configuration not stated) | inconclusive: 5.62 µM [activator, single point] |  |
| CC1CCCC/C1=N\NS(=O)(=O)c1ccc(Br)cc1 (configuration not stated) | inconclusive: 1.26 µM [activator, single point] |  |
| Cc1nc(-c2cccs2)sc1C(=O)NN |  | inactive: 10.7% [at 10 µM] |
| COC(=O)C1=C(C)N(Cc2ccccc2)C2=C3C(=O)N(C)C(=O)C3[C@@](O)(C(=O)OC)C(=O)N2C1c1ccccc1 (some centres not stated) | inconclusive: 0.0011 µM [activator, full curve, poor fit] |  |
| O=C(NC(=S)NCc1ccco1)c1ccccc1 |  | inactive: -3.72% [at 10 µM] |
| Cc1ccc(Oc2ncccc2/C=N/OCc2ccc(Cl)c(Cl)c2)cc1 | inconclusive: 0.794 µM [activator, full curve, poor fit] |  |
| COc1ccc(N2CCN(CC(O)COCc3ccccc3)CC2)cc1 (configuration not stated) | inconclusive: 5.62 µM [activator, single point] |  |
| O=C(O)Cc1cccc(OCCCN(Cc2cccc(C(F)(F)F)c2Cl)CC(c2ccccc2)c2ccccc2)c1 |  | inactive: -334% |
| Cc1ccc(NC(=S)N(CCN(C)C)Cc2cccs2)cc1C | inconclusive: 1.26 µM [activator, single point] |  |
| CCS(=O)(=O)Nc1ccccc1C(N)=O |  | inactive: 1.07% [at 10 µM] |
| CC(=O)N[C@@H](CS)C(=O)O | inconclusive: 0.112 µM [activator, full curve, poor fit] |  |
| NCc1ccccc1Sc1ccccc1CO | inconclusive: 0.1 µM [activator, full curve, poor fit] |  |
| CC1(OC(=O)C2CCCC2)C(=O)C=C2C=C(c3ccsc3)N(C(CO)CO)C=C2C1=O (configuration not stated) | inconclusive: 0.631 µM [activator, single point] |  |
| CCN(CC)S(=O)(=O)c1ccc(Oc2ccccc2OC)cc1 |  | inactive: 16.8% [at 10 µM] |
| COc1ccc2oc(-c3ccccc3)c(C(N)=O)c2c1 |  | inactive: -17% |
| Cc1cc2nc(CCN(Cc3cccnc3)C(=S)Nc3ccc(F)cc3)[nH]c2cc1C |  | inactive: -5.49% |
| O=C(O)C1CC(=O)N(c2ccc(OCc3ccc(Cl)cc3Cl)cc2)C1 (configuration not stated) |  | inactive: -32.6% |
| CC(=O)OCC1OC(C#CC(C)(C)C)C=CC1OC(C)=O (configuration not stated) | inconclusive: 0.0011 µM [activator, full curve, poor fit] |  |
| Cc1cc(NC(=O)C2CC2)ncc1NC(=O)c1ccccn1 |  | inactive: -2.34% [at 10 µM] |
| O=C(/C=C/c1ccc(OCc2ccccc2)c(OCc2ccccc2)c1)c1cccnc1 |  | inactive: 2.6% [at 1.9 µM] |
| CC(C)N(Cc1cc2ccccc2[nH]c1=O)C(=O)c1ccco1 |  | inactive: -28.2% |
| COC(=O)c1cc2occc2n1Cc1ccc(Cl)cc1 | inconclusive: 0.708 µM [activator, single point] |  |

| Compound | Potency | cytoprotection (ATP increase) |
| --- | --- | --- |
| Cc1cccc(N2CC(O)(c3cccs3)[N+]3=C2CCCC3)c1 (configuration not stated) | inconclusive: 3.55 µM [activator, single point] |  |
| CCN1C(=O)[C@H]2[C@H]3[C@H](O)[C@H](O)C/C(=N/O[C@@H](C)c4cn([C@H](CO)Cc5ccccc5)nn4)[C@@H]3CC[C@@H]2C1=O | inconclusive: 6.31 µM [activator, single point] |  |
| CCn1c(SCC(=O)N/N=C/C(C)=C\c2ccco2)nnc1-c1ccccc1 |  | inactive: 13.4% [at 10 µM] |
| CC1=CC(=C(c2ccc(N)cc2)c2ccc(N)cc2)C=CC1=N |  | inactive: -61.8% |
| CCN1CCN(C(=S)Nc2cc(S(=O)(=O)N(CC)CC)ccc2C)CC1 | inconclusive: 35.5 µM [activator, partial curve, poor fit] |  |
| Cc1ccccc1Nc1nc(-c2sc(NC(=O)c3ccco3)nc2C)cs1 |  | inactive: 20.3% [at 10 µM] |
| Fc1cccc(Cl)c1Cn1nnc2c(-n3ccnc3)ncnc21 | inconclusive: 15.8 µM [activator, partial curve] |  |
| CCOCC(=O)Nc1nc2ccc(OCC)cc2s1 |  | inactive: -66.7% |
| COCC(=O)Nc1ccc(Nc2ccccc2)cc1 | inconclusive: 20 µM [activator, single point] |  |
| COCC(=O)N1CCC2(CCCN(c3ccccn3)C2)CC1 | inconclusive: 0.708 µM [activator, single point] |  |
| Cn1nnnc1SCC(=O)Nc1c(Cl)cccc1Cl |  | inactive: 0.1% |
| NCCCC(O)(P(=O)(O)O)P(=O)(O)O | inconclusive: 3.55 µM [activator, partial curve, poor fit] |  |
| COc1ccc(OCCN2C(=O)c3ccccc3C2=O)cc1 | inconclusive: 0.316 µM [activator, partial curve] |  |
| O=S(=O)(NCc1ccc(F)cc1)c1cccc(S(=O)(=O)N2CCOCC2)c1 | inconclusive: 15.8 µM [activator, single point] |  |
| CC(Sc1nnnn1C)C(=O)Nc1ccccc1 (configuration not stated) | inconclusive: 39.8 µM [activator, partial curve, poor fit] |  |
| S=C1NC(c2cccs2)=CC(c2ccc(Br)cc2)N1 (configuration not stated) | inconclusive: 1 µM [activator, partial curve] |  |
| O=Nc1ccc(NO)cc1 | inconclusive: 15.8 µM [activator, single point] |  |
| COC(=O)c1nnc(C(=O)NCc2ccccc2)c2[nH]c3ccccc3c12 | inconclusive: 35.5 µM [activator, single point] |  |
| CC(=O)Nc1ccc(S(=O)(=O)NNC(=O)c2cc3c4ccccc4n(C)c3s2)cc1 | inconclusive: 0.141 µM [activator, partial curve, poor fit] |  |
| Cc1ccc(NC(=O)c2cc(S(=O)(=O)NCCC3=CCCCC3)ccc2F)cc1 | inconclusive: 3.16 µM [activator, single point] |  |
| c1ccc(-n2ncc3c(NCCN4CCOCC4)ncnc32)cc1 |  | inactive: -7.54% |
| CCC(=O)NC(NCC1CCCO1)C(Cl)(Cl)Cl (configuration not stated) | inconclusive: 2.82 µM [activator, single point] |  |
| Cc1noc(C)c1C(=O)N1CCC2(CCCN(Cc3ccc(C#N)cc3)C2)CC1 |  | inactive: -32.4% |

| Compound | Potency | cytoprotection (ATP increase) |
| --- | --- | --- |
| CNC(=O)c1c(I)c(C(=O)NCC(=O)Nc2c(I)c(C(=O)O)c(I)c(C(=O)NCCO)c2I)c(I)c(N(C)C(C)=O)c1I | inconclusive: 3.16 µM [activator, single point] |  |
| CCOc1ccc2nc(SCC(=O)N3CCCc4ccccc43)sc2c1 |  | inactive: -10.5% |
| CCCCNc1cc(C(=O)O)cc(S(N)(=O)=O)c1Oc1ccccc1 | inconclusive: 1 µM [activator, partial curve, poor fit] |  |
| CCCCCC(O)c1cccc(OCc2ccc3ccccc3n2)c1 (configuration not stated) | inconclusive: 5.62 µM [activator, single point] |  |
| C=CCOC(=O)C1(C(NC(=O)OC)c2ccccc2)C(=O)Cc2ccccc21 (configuration not stated) | inconclusive: 35.5 µM [activator, single point] |  |
| N#CC1=C(N)N(c2ccc(F)cc2)C2=C(C1c1ccc(O)cc1)S(=O)(=O)CC2 (configuration not stated) |  | inactive: -30.8% |
| COc1ccc(NC(=O)CCN2CCN(S(=O)(=O)c3ccc(OC)cc3)CC2)cc1 | inconclusive: 1 µM [activator, single point] |  |
| c1ccc(-c2nnc(OCC3CCCO3)c3ccccc23)cc1 (configuration not stated) | inconclusive: 0.0056 µM [activator, full curve, poor fit] |  |
| O=C1C[C@@H](O)[C@@H](O)[C@H]2[C@@H]3C(=O)N(C4CCCCC4)C(=O)[C@@H]3CC[C@H]12 |  | inactive: 15.2% [at 10 µM] and inactive: -2.73% [at 10 µM] and inactive: -37.9% [at 10 µM] |
| O=C1C=CC2=C3c4cc(O)c(O)cc4C[C@@]3(O)COC2=C1 | inconclusive: 31.6 µM [activator, single point] |  |
| c1ccc(C2=NN[C@@H]3c4ccccc4-c4ccccc4N3C2)cc1 | inconclusive: 7.94 µM [activator, single point] |  |
| COC(=O)CN1C(=O)C(O)(CC(=O)c2ccc(C)cc2)c2cc(Br)ccc21 (configuration not stated) |  | inactive: -9.56% [at 10 µM] |
| COC(=O)C12CC3(CCC4C5C(C(OCc6ccccc6)C41)C52)OCCO3 (configuration not stated) | inconclusive: 0.0126 µM [activator, partial curve] |  |
| Cc1cc(NC(=O)C2=C(O)c3ccccc3S(=O)(=O)N2C)no1 | inactive and inconclusive: 1 µM [activator, partial curve] |  |
| CO[C@]1(C2=NCCN2)COc2ccccc2O1 | inconclusive: 0.1 µM [activator, partial curve, poor fit] |  |
| Cc1cc(C(C)(C)CC(C)(C)C)ccc1OCCOCC[N+](C)(C)Cc1ccccc1 | inconclusive: 3.98 µM [activator, single point] |  |
| Cc1cccc(N2CCN(C(=O)CCS(=O)(=O)c3ccc(Br)cc3)CC2C)c1 (configuration not stated) | inconclusive: 3.55 µM [activator, partial curve, poor fit] |  |
| C=CCSc1nc2ccccc2n1C(=O)/C=C/c1ccc(OC)c(OC)c1 | inconclusive: 35.5 µM [activator, single point] |  |
| Cc1ccc(CNC(=O)CCNC(=O)Cn2ccc3ccccc3c2=O)cc1 | inconclusive: 0.355 µM [activator, single point] |  |
| CCN(CC)CCOC(=O)C1(c2ccc([N+](=O)[O-])cc2)CCCC1 | active: 0.316 µM |  |
| COc1cc(C(=O)Nc2nnc(C(C)(C)C)s2)c([N+](=O)[O-])cc1OC |  | inactive: -7.12% [at 10 µM] |

Source: PubChem BioAssay AID1471 (National Center for Advancing Translational Sciences (NCATS), 2008)
